The subject of the assay is L1210 leukemia ip in BDF1 mice, survival T/C. As to the kind of experiment: NCI In Vivo Anticancer Drug Screen. Data for tumor model L1210 Leukemia (intraperitoneal) in B6D2F1 (BDF1) mice. To be noted: T/C endpoint: mean survival time, higher T/C = longer survival.
Where [1] appears, read: dose: 100.0 mg/kg/injection, schedule: Q04DX002 (ip), vehicle: Klucel (hydroxypropylcellulose) (HPC).
[2] abbreviates: dose: 200.0 mg/kg/injection, schedule: Q04DX002 (ip), vehicle: Klucel (hydroxypropylcellulose) (HPC).
[3] abbreviates: dose: 400.0 mg/kg/injection, schedule: Q04DX002 (ip), vehicle: Klucel (hydroxypropylcellulose) (HPC).
[4] abbreviates: dose: 400.0 mg/kg/injection, schedule: Q01DX009 (ip), vehicle: saline with Tween-80.
[5] abbreviates: dose: 400.0 mg/kg/injection, schedule: Q01DX001 (ip), vehicle: saline.
Setting [6] is: dose: 400.0 mg/kg/injection, schedule: Q04DX003 (ip), vehicle: saline.
Setting [7] is: dose: 100.0 mg/kg/injection, schedule: Q04DX003 (ip), vehicle: Klucel (hydroxypropylcellulose) (HPC).
[8] abbreviates: dose: 100.0 mg/kg/injection, schedule: Q01DX009 (ip), vehicle: saline with Tween-80.
[9] abbreviates: dose: 400.0 mg/kg/injection, schedule: Q01DX009 (ip), vehicle: Klucel (hydroxypropylcellulose) (HPC).
Where [10] appears, read: dose: 150.0 mg/kg/injection, schedule: Q01DX001 (ip), vehicle: other.
Setting [11] is: dose: 300.0 mg/kg/injection, schedule: Q01DX001 (ip), vehicle: other.
[12] abbreviates: dose: 100.0 mg/kg/injection, schedule: Q01DX009 (ip), vehicle: Klucel (hydroxypropylcellulose) (HPC).
Where [13] appears, read: dose: 200.0 mg/kg/injection, schedule: Q01DX009 (ip), vehicle: Klucel (hydroxypropylcellulose) (HPC).
Where [14] appears, read: dose: 400.0 mg/kg/injection, schedule: Q04DX003 (ip), vehicle: saline with Tween-80.
Where [15] appears, read: dose: 200.0 mg/kg/injection, schedule: Q04DX003 (ip), vehicle: Klucel (hydroxypropylcellulose) (HPC).
Setting [16] is: dose: 400.0 mg/kg/injection, schedule: Q04DX003 (ip), vehicle: Klucel (hydroxypropylcellulose) (HPC).
[17] abbreviates: dose: 400.0 mg/kg/injection, schedule: Q01DX001 (ip), vehicle: Klucel (hydroxypropylcellulose) (HPC).
Setting [18] is: dose: 400.0 mg/kg/injection, schedule: Q04DX002 (ip), vehicle: saline with Tween-80.
Setting [19] is: dose: 200.0 mg/kg/injection, schedule: Q04DX003 (ip), vehicle: saline.
The mark [20] stands for this setting: dose: 400.0 mg/kg/injection, schedule: Q01DX001 (ip), vehicle: carboxymethylcellulose (CMC).
Where [21] appears, read: dose: 100.0 mg/kg/injection, schedule: Q04DX003 (ip), vehicle: saline with Tween-80.

The list does not hold the whole screen: it gathers tests that were run many times, whatever their T/C, doses with no T/C, and many T/C values between a quarter and a half above the control. Further doses and runs are listed elsewhere. T/C: endpoint of the treated group in % of that of the vehicle group. Some doses have a count of surviving animals in place of a T/C: the source files T/C as zero there, which appears to mark a toxic dose or a test without result, not a measured value. Some survivor counts are full or nearly so, which does not show that the dose was tolerated: the source hardly ever lists a survival T/C far under the control, and the zero likely stands for such cases as well. Counts of survivors are from the toxicity check (mostly the fifth day) where no day follows; animals may have died later. Schedule codes are those of the source, read here as Q, the interval in days (D) or hours (H), X, the number of doses. Some entries hold several experiments; the values are given in rising order. Brackets with × stand for listed records that agree. Some molecules as drawn cover several salts, stereoisomers or complexes of the source; a dose is that of the sample tested. Where survival is the endpoint, the PubChem record calls one and a half times the control and up active, and a quarter to a half above the control has no call in these data; cut-offs in other NCI protocols can differ. Some T/C values are followed by the survivors on the day toxicity was checked, most often the fifth; where none is given, no animal had died by that day.

Regarding `O=C(Nc1cccc(C(F)(F)F)c1)N(CCO)Cc1ccccc1`, the T/C by setting is: under setting [1], 96, 97, 105, 125 % of control; under setting [2], 92, 99, 105 % of control (2×); under setting [3], 96 (2×), 100, 102 % of control.

As for `CNC(=S)N/N=C1/C(=N\NC(=S)NC)C(=O)OC1C(O)CO` (configuration not stated), under setting [4], the survivor count is listed as 4 of 6.

Turning to `CCOC(=O)C(Cc1ccc(O)c(N(CCO)CCO)c1)N1C(=O)c2ccccc2C1=O` (configuration not stated), the survivor count under setting [5] is 2 of 4.

As for `CCC(O)CN` (configuration not stated), the survivor count under setting [6] is listed as 3 of 3.

Turning to `Cc1ccc(S(=O)(=O)N(C)c2cc(Cl)c(C#N)c(Cl)c2)cc1`, under setting [7], the survivor count is listed as 6 of 6.

Take `O=P(N1CC1)(N1CC1)C12CC3CC(CC(C3)C1)C2`: the survivor count under setting [8] is recorded as 6 of 6.

As for `NC(=S)N/N=C/c1c[nH]c2ccccc12`, under setting [9], the survivor count was 0 of 6.

Take `CCOP(=O)(/C=C/NC1CCCCC1)OCC`: the survivor count under setting [5] is on record as 3 of 6.

For `O=C(Cc1cccc2ccccc12)N/N=C/c1cccc([N+](=O)[O-])c1`, under setting [9], the survivor count is given as 5 of 6.

Regarding `CCOC(=N)c1nnn(Cc2ccccc2)c1N`, under setting [5], the survivor count was 1 of 4.

Take `NC(=Nc1ccccc1)c1ccc(Cl)cc1`: the survivor count under setting [2] is on record as 3 of 3 and the survivor count under setting [3] is reported as 2 of 3.

For the compound `COc1cc(C=Nc2ccc3nc(C)[nH]c3c2)ccc1N(CCCl)CCCl`, the survivor count is on record as 0 of 3 under setting [1], 0 of 3 under setting [2] and 0 of 3 under setting [3].

Regarding `CCCCCCCCCCCCNC(=O)C[N+](C)(C)Cc1ccc2c(c1)CCCC2`, the survivor count (dose: 10.0 mg/kg/injection, schedule: Q01DX009 (ip), vehicle: saline with Tween-80) is 2 of 6.

`CC(C)(C)NNC(C)(C)C`: the survivor count is given as 2 of 6 (dose: 75.0 mg/kg/injection, schedule: Q01DX001 (ip), vehicle: other); 0 of 6 under setting [10]; 0 of 6 under setting [11].

For `Nc1nc(-c2ccccc2)cs1`, the survivor count under setting [12] was 0 of 6, the survivor count under setting [13] is given as 0 of 6 and the survivor count under setting [9] is 0 of 6.

`CCCC1N(C)CCCN1C`: the survivor count under setting [14] is 0 of 6.

As for `O=C(CC1(Cl)C(F)(F)C(F)(F)C1(F)F)c1ccccc1`, the survivor count runs as follows: (dose: 50.0 mg/kg/injection, schedule: Q01DX009 (ip), vehicle: saline with Tween-80) 0 of 6; under setting [8], 0 of 6.

Regarding `CCOC(=O)c1cc([N+](=O)[O-])c([N+](=O)[O-])cc1Cl`, the survivor count under setting [7] was 6 of 6, the survivor count under setting [15] was 6 of 6 and the survivor count under setting [16] is recorded as 2 of 6.

With `O=C(O)C(O)c1cccc(Cl)c1` (configuration not stated), the survivor count (dose: 300.0 mg/kg/injection, schedule: Q01DX001 (ip), vehicle: acetone) is given as 1 of 6.

On to `NC(N)=NC(N)=Nc1cccc(Cl)c1`, for which the T/C by setting is: under setting [12], 97, 104, 108, 118 % of control; (dose: 100.0 mg/kg/injection, schedule: Q04DX002 (ip), vehicle: Klucel (hydroxypropylcellulose) (HPC), evaluated on day 20) 97 % of control; (dose: 100.0 mg/kg/injection, schedule: Q04DX002 (ip), vehicle: Klucel (hydroxypropylcellulose) (HPC), evaluated on day 30) 97, 110, 139 % of control [2 of 3 alive]; under setting [2], 89, 91, 106 % of control [4 of 6 alive]. For the same compound, the survivor count was 0 of 3 and 2 of 6 under setting [13]; 0 of 3 under setting [2]; 3 of 6 under setting [15]; 1 of 6 under setting [17]; 0 of 3 and 0 of 6 under setting [9]; 0 of 3 (2×), 0 of 6, 1 of 6 under setting [3]. Further, the survivor count under setting [16] is listed as 0 of 6.

With `CC1CCCC(C)(C)C1NCc1cc(Br)cc(Br)c1O` (configuration not stated), the survivor count under setting [13] is 2 of 6.

Take `CN(C)Cc1c(O)ccc2ccccc12`: the survivor count under setting [18] was 0 of 3.

With `C=CCNC(=O)/C=C\C(=O)O`, under setting [3], the survivor count was 3 of 3.

Regarding `C/C(=N\[N+](C)(C)C)c1ccc(Br)cc1`, the survivor count (dose: 150.0 mg/kg/injection, schedule: Q01DX009 (ip), vehicle: saline) is listed as 0 of 6; the survivor count under setting [19] is 1 of 6; the survivor count (dose: 225.0 mg/kg/injection, schedule: Q01DX009 (ip), vehicle: saline) was 0 of 6; the survivor count (dose: 335.0 mg/kg/injection, schedule: Q01DX009 (ip), vehicle: saline) is on record as 0 of 6; the survivor count under setting [6] is recorded as 0 of 6.

Regarding `CN1CCC(OC(c2ccccc2)c2ccccc2)CC1`, the survivor count (dose: 80.0 mg/kg/injection, schedule: Q01DX009 (ip), vehicle: saline) is reported as 1 of 6; the survivor count (dose: 100.0 mg/kg/injection, schedule: Q04DX003 (ip), vehicle: saline) was 3 of 6; the survivor count under setting [19] was 0 of 6; the survivor count under setting [6] is reported as 0 of 6.

Turning to `NNS(=O)(=O)c1ccccc1`, the survivor count is 0 of 4 (dose: 200.0 mg/kg/injection, schedule: Q01DX001 (ip), vehicle: carboxymethylcellulose (CMC)) and 0 of 4 under setting [20].

In the case of `O=C1Nc2ccccc2C12Nc1cccnc1N2` (configuration not stated), the survivor count (dose: 400.0 mg/kg/injection, schedule: Q01DX001 (ip), vehicle: saline with Tween-80) is on record as 6 of 6.

As for `N#CCCSc1ccccc1`, the survivor count runs as follows: (dose: 200.0 mg/kg/injection, schedule: Q01DX009 (ip), vehicle: saline with Tween-80) 1 of 3; under setting [4], 0 of 3; under setting [18], 2 of 3.

Take `CNCCCNCC1C(c2ccccc2)C1c1ccccc1` (configuration not stated): the survivor count by setting is: (dose: 100.0 mg/kg/injection, schedule: Q04DX002 (ip), vehicle: saline) 1 of 3; (dose: 200.0 mg/kg/injection, schedule: Q04DX002 (ip), vehicle: saline) 0 of 3; (dose: 400.0 mg/kg/injection, schedule: Q04DX002 (ip), vehicle: saline) 0 of 3.

Regarding `ClCCN1CCOCC1`, the survivor count reads like this: (dose: 100.0 mg/kg/injection, schedule: Q01DX009 (ip), vehicle: saline) 0 of 6; under setting [19], 1 of 6; under setting [6], 0 of 6.

With `O=C(O)c1cccc(Nc2ccccc2C(=O)O)c1`, under setting [20], the survivor count is 4 of 4.

For the compound `C[N+](C)(C)CCC[N+]1(C)CCC2(CCCC(C(F)(F)F)C2)CC1` (configuration not stated), the survivor count under setting [5] is reported as 0 of 4.

As to `NC(Cc1ccccc1)CC1CCC1` (configuration not stated), the survivor count reads like this: under setting [21], 2 of 6; (dose: 200.0 mg/kg/injection, schedule: Q04DX003 (ip), vehicle: saline with Tween-80) 1 of 6; under setting [14], 0 of 6.

For the compound `OC1c2ccccc2C(c2ccccc2)C1c1ccccc1` (configuration not stated), under setting [21], the survivor count is listed as 6 of 6.

For `Cc1cccc(NC#N)n1`, the survivor count reads like this: (dose: 200.0 mg/kg/injection, schedule: Q01DX001 (ip), vehicle: Klucel (hydroxypropylcellulose) (HPC)) 0 of 6; under setting [17], 0 of 6.

On to `CCCCCCCCCCCCCCCCCCNC(=O)Nc1cccc(OC)c1`, for which, under “dose: 100.0 mg/kg/injection, schedule: Q04DX002 (ip), vehicle: saline with Tween-80”, the survivor count is given as 3 of 3.

`Nc1ccc(SCCC(=O)O)cc1`: the survivor count is, setting by setting: under setting [10], 3 of 6; under setting [11], 0 of 6 and 2 of 6.
